Measurements published in patent US20120283283A1, “METHODS FOR DETECTING ENHANCED RISK OF OPIOID-INDUCED HYPOXIA IN A PATIENT” (priority 2011, published 2012).

Key:
[1] = system: patients with moderate to severe postoperative pain following bunionectomy surgery; assay: Three double blind, randomized clinical studies (007, 008, 021): oxygen desaturation (SpO2<90%) by pulse oximetry during 48 hour treatment
Description: Oxygen saturation was measured continuously during baseline and the 48 hour treatment periods using pulse oximetry. The total number and percentage of patients with oxygen desaturation (SpO2<90%) were recorded at: 0, 15, 30 and 45 minutes, and 1, 2, 3, 4, 5, 6 and 8 hours after study drug administration; at the time of administration of subsequent doses of study medication; at the time of administration of supplemental analgesic medication; 1 hour after administration of study medication; and whenever a desaturation occurred during the dosing period.
Respiration rate (<10 breaths/min, 10-12 breaths/min, >12 breaths/min) was summarized at the same time points as the SpO2 recordings. Cumulative MED was determined at the time of the first episode of SpO2<90%. All desaturations and use of supplemental oxygenation, use of narcotic antagonists against respiratory impairment, and respiratory related serious adverse events (SAEs) were recorded.
In subjects with oxygen desaturation the following data was recorded: cumulative MED at first desaturation; mean desaturation values; number of desaturation episodes; and total duration of desaturation episodes.
Some patients in the three clinical studies were enrolled who resided near study sites that are located at an altitude of about or over 4000 feet above sea level.

[2] = system: patients with postoperative pain; details: 1 mg bolus doses, 5-10 min lockout period, PCA; cited from earlier work

## CN1CC[C@]23c4c5ccc(O)c4O[C@H]2[C@@H](O)C=C[C@H]3[C@H]1C5.O=S(=O)(O)O [morphine, morphine sulfate]
[1]; 12 mg MED, lower elevation / non-high altitude sites
  incidence of desaturation (SpO2<90%): 1.6%
[1]; cumulative MED at first desaturation
  cumulative dose before experiencing an oxygen desaturation event (SpO2<90%): 24 mg
[1]; morphine or oxycodone alone
  incidence of desaturation at high elevation site compared to lower sites: nearly six-fold
[2]
  subjects who experienced respiratory dysfunction: about 2%
